This experiment in a line: qHTS Assay for Lipid Storage Modulators in Drosophila S3 Cells.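 On cell number change: cells counted by Cell Tracker Red CMTPX staining in the red channel.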 Particulars: BODIPY lipid droplet fluorescence, 18-24 h; for cell number change: measured here: cell count max response, cells fed with added oleic acid. In outline:
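Laser-scanning cytometry quantifies lipid droplet accumulation (500–530 nm total intensity; droplet/cell object ratio) in oleic acid-fed (400 uM added) Drosophila S3 cells treated with a concentration series. 20 uM Triacsin C defined 100% inhibition.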
In general terms: qHTS replaces the single test concentration by a dilution series.

Where [1] appears, read: measured here: lipid fluorescence (Fed channel) AC50, cells fed with added oleic acid.
[2] abbreviates: measured here: cell number channel AC50, cells fed with added oleic acid.

Some of the results follow. Further columns of the screen follow, without active or inactive calls. Most of these compounds were active or inconclusive in the main read-out, so they are no random draw. Potencies come from curve fits of mixed quality, noted in brackets.

Consider `CN(C)S(=O)(=O)c1cccc(C(=O)NCC2CCCCC2)c1`, for which the cell number change worked out at 10.5%.

Turning to `Cc1cc(C)n(-c2ccc(C(=O)OCC(=O)N(CC(C)C)C3CCS(=O)(=O)C3)cc2)n1` (stereo not drawn), the cell number change is -11.2%. As to `O=C(Nc1ccccc1C(=O)NCc1ccco1)c1ccco1`, the cell number change was found to be 12.9%. Also, under setting [1], the half-maximal activity concentration (AC50) was 20.6 µM [rising, partial curve].

In the case of `CC(C)(C)S(=O)(=O)/C(C#N)=N/Nc1ccc(Cl)cc1`, the cell number change was -20.3%. In addition, the AC50 under setting [1] is 29.1 µM [falling, single point]. As to `CCOC(=O)C1CCCN(CCC(=O)Nc2ccc(F)c(F)c2)C1` (stereo not drawn), the cell number change worked out at 25.1%. In addition, the AC50 under setting [1] was 6.51 µM [falling, single point]. Take `O=C(COC(=O)CNS(=O)(=O)c1ccc(F)c(F)c1F)NCCc1ccccc1`: the cell number change worked out at 41.1%. For the same compound, under setting [2], the AC50 was 29.1 µM [rising, single point]. The AC50 under setting [1] was 29.1 µM [rising, single point]. As for `CCOc1ccc2nc(SCC(=O)c3ccc(Cl)s3)sc2c1`, the cell number change came to 45.1%. Besides, the AC50 under setting [2] is 18.4 µM [rising, single point]. In the case of `CC(=O)C1=C(C)N(CC2CC2)C(=O)N[C@H]1c1ccccc1`, the cell number change was -21%. Also, under setting [1], the AC50 is 6.51 µM [falling, single point]. Consider `Cc1ccc(/C=N/N2CCN(C3c4ccccc4-c4ccccc43)CC2)s1`, for which the cell number change was 3.14%. Besides, the AC50 under setting [1] was 0.517 µM [rising, full curve, poor fit]. Turning to `COc1ccc(CCNC(=O)CSc2ccccn2)cc1`, the cell number change is -3.38%. The AC50 under setting [2] is 0.00517 µM [falling, full curve, poor fit]. For the same compound, the AC50 under setting [1] was 0.00461 µM [falling, full curve, poor fit]. Turning to `Cc1nc(N2CCN(c3ccccn3)CC2)c2c(C)c(C(=O)Nc3ccc(Br)cc3C)sc2n1`, the cell number change came to 130%. Under setting [2], the concentration at half-maximal activity (AC50) was 20.6 µM [rising, single point]. Regarding `Cn1c(=O)c2c(nc(Sc3ncccn3)n2Cc2ccc(Cl)cc2)n(C)c1=O`, the cell number change was -69.3%. Further, the concentration at half-maximal activity (AC50) under setting [2] is 18.4 µM [falling, single point]. Also, the AC50 under setting [1] is 20.6 µM [falling, single point]. As for `CCOC(=O)Cn1c(=N)n(CCOc2ccc(OC)cc2)c2ccccc21`, the cell number change is 21.3%. `Cc1ccccc1C(=O)O/N=C(\c1ccccc1)c1ccccn1`: the cell number change came to 2.33%. For the same compound, the AC50 under setting [1] is 18.4 µM [rising, single point]. As for `Cc1cc(C)n(C(=O)CN2C(=O)COc3ccccc32)n1`, the cell number change was -19.8%. For `O=C(CC12CC3CC(CC(C3)C1)C2)NCC(=O)N1CCc2ccccc2C1`, the cell number change is 77.8%. Moreover, the AC50 under setting [2] is 18.4 µM [rising, single point]. Moreover, the AC50 under setting [1] is 6.51 µM [rising, single point]. As for `CCOC(=O)c1ccc(S(=O)(=O)N2CCC(C(=O)NCC3CCCCC3)CC2)cc1`, the cell number change was -26.1%.

One may read the AC50 as the concentration at which the activity in the assay is half-maximal.

These data come from PubChem BioAssay AID2685 (National Center for Advancing Translational Sciences (NCATS), 2010).
